# From PubChem BioAssay AID493014 (National Center for Advancing Translational Sciences (NCATS), 2011)
# This is one part of the list. These are further read-outs of the screen, such as a control signal, another cell line or another target. No call is given for them. Compounds called inactive in the main read-out are mostly missing here. Words in brackets tell the shape of the fitted curve; partial curves, single points and poor fits give uncertain potencies.
# Test: qHTS Assay to Find Inhibitors of Chronic Active B-Cell Receptor Signaling
# Conditions: ABC-DLBCL IkBa-CBG/CBR reporter, luminescence ratio (green luciferase fused to IkBa over red control in TMD8 lymphoma cells), 4 h
# Summary of the method: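 Concentration-response series (up to 46 uM) were applied to TMD8 dual-reporter cells for 4 h at 37C with doxycycline. Green/red ratio, after filter-overlap correction, defined %Activity; red signal alone was normalised to basal cells and zero luminescence.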
# [1] = measured here: CBR red luminescence, cell number
# [2] = measured here: IkBa-CBG green luminescence
SMILES,AC50 [1],AC50 [2]
COc1ccc(CCNC(=O)c2c[nH]n3c(=O)c(Cc4ccccc4Cl)c(C)nc23)cc1OC,"12.6 µM [rising, partial curve, poor fit]",
CCc1cc2c(=O)c(-c3nc4ccccc4[nH]3)coc2c(CN2CCCCC2C)c1O (stereo not drawn),"17.8 µM [falling, partial curve, poor fit]",
Cc1nc(S(=O)(=O)N(C)c2ccccc2)c(C#N)c(C)c1Cl,"14.1 µM [falling, single point]",
CCOc1cc(N2CCOCC2)c(OCC)cc1NS(=O)(=O)c1ccc(Cl)s1,"35.5 µM [rising, single point]","22.4 µM [falling, partial curve, poor fit]"
COc1cccc(C(=O)Nc2ccc3nc(N4CCN(c5ncccn5)CC4)cc(C)c3c2)c1OC,"5.17 µM [falling, full curve]","13 µM [rising, partial curve, poor fit]"
O=c1c(Sc2ccccc2)c(C(F)(F)F)[nH]n1-c1ccccc1,"23.1 µM [falling, partial curve, poor fit]",
CCOc1ccc(C(=O)NC(=S)Nc2ccccn2)cc1[N+](=O)[O-],"2.82 µM [falling, full curve]",
Cc1ccc(C(C2C(=O)CC(C)(C)CC2=O)C2C(=O)CC(C)(C)CC2=O)s1,"35.5 µM [rising, single point]",
O=C(NCc1ccc2c(c1)OCO2)Nc1ccc(Cl)cc1,"22.4 µM [falling, partial curve, poor fit]",
O=c1oc2ccccc2c(Nc2ccccc2O)c1[N+](=O)[O-],"3.16 µM [rising, single point]",
CN(C)c1ccc(NC(=S)NC(=O)/C=C/c2ccc(Cl)cc2)cc1,"25.9 µM [rising, single point]",
C[C@@H]1C[C@@H]2OC(=O)[C@]3(C)[C@H]2[C@@H](OC3(C)O)[C@]2(C)C(=O)C=C[C@H]12 (stereo partly drawn),"17.8 µM [falling, partial curve]",
O=C(N/N=C/c1ccccn1)c1cc(-c2ccccc2Cl)n[nH]1,"1.26 µM [falling, partial curve, poor fit]",
O=c1cc(C(F)(F)F)[nH]c2ccc(OC(F)(F)F)cc12,"4.47 µM [falling, full curve]","2.82 µM [rising, full curve]"
O=C(COc1ccc([N+](=O)[O-])cc1)NNC(=S)NC(=O)c1ccc(Br)cc1,"11.2 µM [rising, partial curve]",
CCCCOc1ccc(Cl)cc1CSc1nncn1N,"10.3 µM [rising, partial curve, poor fit]",
O=C1c2ccc([N+](=O)[O-])cc2NC(c2ccco2)N1/N=C/c1ccco1 (stereo not drawn),"35.5 µM [falling, single point]",
Cc1nnc(Sc2cc(NCCO)c([N+](=O)[O-])c3nonc23)s1,"17.8 µM [falling, single point]",
Cc1ccccc1C(=O)OCc1nnc(-c2ccc(Cl)cc2)o1,"35.5 µM [falling, single point]",
CC(=O)N1CCN(c2cc(N3CCc4ccccc4C3)c(F)cc2[N+](=O)[O-])CC1,"17.8 µM [falling, single point]",
Cn1c2ccccc2c2cc([N+](=O)[O-])ccc21,"11.2 µM [rising, single point]",

SMILES,AC50 [1],AC50 [2]
CCOC(=O)c1ccc(NC(=S)N2CCSC2c2ccc(OC)cc2)cc1 (stereo not drawn),"29.1 µM [falling, single point]",
COCCn1c(-c2ccc(OC)cc2)cnc1SCC(=O)Nc1cc(C)on1,"23.1 µM [falling, single point]",
O=C1CC(C(F)(F)F)=NN1,"0.1 µM [rising, full curve, poor fit]",
Cc1c(NS(=O)(=O)c2cccc(C(=O)N3CCC(C)CC3)c2)c(=O)n(-c2ccccc2)n1C,"29.1 µM [falling, single point]",
Nn1c(SCc2ccccc2)nnc1-c1ccccn1,"35.5 µM [falling, single point]",
CC(C)(C)C1CCc2c(sc(NC(=O)CSc3ncn[nH]3)c2C#N)C1 (stereo not drawn),"25.9 µM [rising, partial curve]",
CC(Sc1nc2ccccc2c(=O)n1C)C(=O)N(C)C1CCCCC1 (stereo not drawn),"8.2 µM [falling, partial curve]",
CCC(=O)Nc1ccc(N/C(N)=N/c2nc(C)cc(C)n2)cc1,"0.1 µM [rising, full curve, poor fit]",
O=C(Cc1cn2ccsc2n1)OCc1ccccc1,"9.2 µM [falling, partial curve, poor fit]",
CC(=N\NC(=O)c1cc(Br)ccc1O)/C(=N/O)C(=O)Nc1ccccc1,"7.08 µM [falling, partial curve]",
O=C1CN(C(=O)COC(=O)CCc2ccccc2)c2ccccc2N1,"29.1 µM [rising, single point]",
C/C(=N\OCC(=O)N/N=C/c1ccccc1)c1cccs1,"29.1 µM [falling, single point]",
Cc1nc2sccn2c1-c1csc(NCc2ccccc2)n1,"20 µM [falling, partial curve]",
Cc1cc(C)c(S(=O)(=O)N2CCN(C(=O)c3ccc(-n4cncn4)c([N+](=O)[O-])c3)CC2)c(C)c1,"2.31 µM [falling, partial curve, poor fit]",
CCN(CC)C(=O)CSc1nc2c(sc(=S)n2-c2ccccc2)c(=O)n1-c1ccccc1OC,"7.08 µM [falling, partial curve]",
O=C(OCc1nc2ccccc2s1)c1cnccn1,"3.55 µM [rising, full curve, poor fit]",
N#CCCSc1ccccc1NC(=O)c1cc(=O)c2ccccc2o1,"1.58 µM [falling, full curve]",
CCCCSc1nnc2c(n1)[nH]c1ccccc12,"2.06 µM [rising, partial curve, poor fit]",
CCC/C=N/NC(=O)c1cc(Br)ccc1O,"1.16 µM [falling, full curve]",
CCOC(=O)C1CCN(C(=O)Cn2cc(C#N)c3ccccc32)CC1,"25.9 µM [falling, partial curve, poor fit]",
O=C(CSCc1ccc(Cl)cc1)N1CCN(Cc2ccc3c(c2)OCO3)CC1,"29.1 µM [falling, single point]",

# Given with tabs: entries from further up.
SMILES	AC50 [1]	AC50 [2]
COc1cccc(C(=O)Nc2ccc3nc(N4CCN(c5ncccn5)CC4)cc(C)c3c2)c1OC	5.17 µM [falling, full curve]	13 µM [rising, partial curve, poor fit]
O=c1c(Sc2ccccc2)c(C(F)(F)F)[nH]n1-c1ccccc1	23.1 µM [falling, partial curve, poor fit]	
CCOc1ccc(C(=O)NC(=S)Nc2ccccn2)cc1[N+](=O)[O-]	2.82 µM [falling, full curve]	

# Going on with the list.

SMILES,AC50 [1],AC50 [2]
COc1ccc(-c2c/c(=N\c3nc(-c4ccccc4)c(C)s3)c3ccccc3o2)cc1O,"18.4 µM [rising, partial curve]","6.51 µM [falling, full curve]"
CCN(C(=O)COc1cccc(-n2cnnn2)c1)C1CCS(=O)(=O)C1 (stereo not drawn),"11.6 µM [falling, partial curve, poor fit]",
Cc1ccc2nc(NC(=O)CCn3cccc3)sc2c1,"11.2 µM [falling, partial curve]",
N#CCC(CNc1ncc(C(F)(F)F)cc1Cl)OC(=O)c1ccc(Cl)cc1 (stereo not drawn),"6.31 µM [falling, partial curve, poor fit]",
COc1cc(NC(=O)Cn2nnc(-c3ccncc3)n2)cc(OC)c1,"10 µM [rising, partial curve, poor fit]",
CC(=O)/C(N)=N/Nc1cccc(Cl)c1,"1.46 µM [rising, full curve, poor fit]",
O=C(/C=C/c1ccc(F)cc1)N1CCc2ccccc2C1,"13 µM [falling, partial curve]",
C=CCn1c(SCC(=O)NC2CCCC2)nc2scc(-c3ccco3)c2c1=O,"11.6 µM [falling, single point]","16.4 µM [rising, partial curve, poor fit]"
Cc1onc(-c2ccccc2)c1C(=O)NC(=S)NNC(=O)c1cc(-c2ccc(F)cc2)n[nH]1,"7.94 µM [falling, partial curve, poor fit]",
CN1CCN(C=Nc2nc3ccccc3nc2N2CCCC2)CC1,"35.5 µM [falling, single point]",
CC1=C(C(=O)Nc2ccccc2)C2(CCCCC2)C(C#N)=C(SCC(N)=O)N1,"13 µM [falling, single point]",
CN(C)Cc1nc2ccccc2c(=O)n1Cc1nc(-c2cc3ccccc3o2)cs1,"35.5 µM [falling, single point]",
CC1(C2(O)CCCCC2)NCCc2ccccc21 (stereo not drawn),"29.1 µM [falling, single point]",
CCc1cccc(Nc2c3c(nc4ncnn24)CCC3)c1,"3.98 µM [rising, partial curve, poor fit]",
CCCCn1c2nc3ccccc3nc2c2c(=N)oc(C)nc21,"35.5 µM [falling, single point]",
CCn1c(SCC(=O)Nc2nc3ccc(OC)cc3s2)nnc1-c1ccoc1C,"17.8 µM [falling, single point]",
Cc1nn(-c2ccccn2)c2c1C(c1ccccn1)C1=C(CCCC1=O)N2 (stereo not drawn),"29.1 µM [falling, single point]",
CCOC(=O)c1ccccc1NC(=O)c1cn(CC)c2nc(C)ccc2c1=O,"22.4 µM [falling, single point]",
CCCCN1C(=O)C(NC(C)=O)c2cc(Br)ccc21 (stereo not drawn),"0.58 µM [falling, partial curve, poor fit]",
CC(C)c1cc(C(=O)N/N=C/c2ccco2)n[nH]1,"11.6 µM [falling, partial curve]",
CCc1ccc(S(=O)(=O)NCCOc2cccc3cccnc23)cc1,"35.5 µM [falling, partial curve, poor fit]",
